Reference: publication doi:10.1101/275560
These are yes or no findings as the source states them, for the method shown. Binding seen in cells or lysates may run through a third protein. These calls come from enrichment with a bait or labelling near it, and not all partners need be listed.

Amino acid sequences for entries named in this document (tags omitted).
UniProt Q9MAM4: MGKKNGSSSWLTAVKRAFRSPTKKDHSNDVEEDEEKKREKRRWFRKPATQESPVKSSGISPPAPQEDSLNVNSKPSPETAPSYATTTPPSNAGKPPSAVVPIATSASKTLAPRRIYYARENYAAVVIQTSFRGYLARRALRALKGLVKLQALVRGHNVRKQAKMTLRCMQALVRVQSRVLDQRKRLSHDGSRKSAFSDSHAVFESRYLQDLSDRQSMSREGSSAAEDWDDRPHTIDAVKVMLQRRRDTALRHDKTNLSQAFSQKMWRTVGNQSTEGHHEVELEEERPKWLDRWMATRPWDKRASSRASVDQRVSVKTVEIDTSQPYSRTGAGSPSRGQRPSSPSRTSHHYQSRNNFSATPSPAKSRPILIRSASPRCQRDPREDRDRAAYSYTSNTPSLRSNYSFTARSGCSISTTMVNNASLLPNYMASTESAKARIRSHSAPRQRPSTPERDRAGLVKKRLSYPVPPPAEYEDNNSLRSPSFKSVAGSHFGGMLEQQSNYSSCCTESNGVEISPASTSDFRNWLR

Biological target: AtIQD18-sYFP (pIQD18::gIQD18:sYFP) (Arabidopsis thaliana) (UniProt Q9MAM4)
Experiment: affinity purification with mass spectrometry

binding: binds
B1: SPIRAL2 (SPR2) protein, endogenous (protein, UniProt Q9T041 1-864)
chain: MSTPTTSGSAAKPTRPARSSSLATRSCSNSGSLTSFQAMVELKQKILTSISKLADRDTYQIAVEDLEKTIQSLTPETLPMFLNCLYDSCSDPKPAVKKECLHLLSYVCSLHCDSTAAHLTKIIAQIVKRLKDSDSGVRDACRDTIGALSGIYLKGKEEGTNTGSASLAVGLFVKPLFEAMGEQNKVVQSGASMCMARMVESAASPPVTSFQKLCPRICKLLSNSSFLAKASLLPVVSSLSQVGAIAPQSLESLLESIHDCLGSTDWVTRKAAAETLTALASHSSGLIKEKTDSTITVLETCRFDKIKPVRESVTEALQLWKKISGKYVDGASDDSKLSASEQLGSEKNGEKRSNLADLMKKEASDGSTLSPDSASKGKGCFPEKAVGLLKKKAPVLSDKDFNPEFFQRLERRQSVEVVVPRRCKNNDEEESGLDDLNAMGSSNRLKNTQADDKQVKGRFDGNGSQARTSGDDKAGVVNGKETPGHHAPVSNTDNQSEGSFTSNRGNWSAIQRQLLQLERQQTNLMNMLQEFIGGSHDSMVTLEGRVRGLERIVEDMARDLSISSGRRANLTAGFGKYNSFANYPTGKYNGRAPGERGSQTDGAMRGRMWNSDMADDWFIPPHAASRNGQAGPRRSPRSEQYENEHMGNGRRGWDNKASGTIRFGEGPSARSVWQASKDEATLEAIRVAGEDGAVPRPTRVAVAPEAEAMGDDDNEGQERDPIWVSWSNAMHSLRVGDIDAAYAEVLCAGDQHLVIKLMDKTGPSLDQMSNEIANEALNFISQFLLDHSLYDICLSWSQQLLELVLQDGADTFGVPMELKTEILYNLQDACSTMDPPEDWEGPAPEQLVVQLASVWEIDLQQFDK
